The record followed here is patent US20070128187A1 (GENOME THERAPEUTICS, published 2007).

No constants are given. Whether binding was seen depends on the method and setting. Some entries that bind do so weakly or less than the wild type.

For the assay, the target named is T1, LRP5 ligand binding domain (LBD) bait sequence (which bait is not stated) (human) (UniProt O75197).
T1 sequence: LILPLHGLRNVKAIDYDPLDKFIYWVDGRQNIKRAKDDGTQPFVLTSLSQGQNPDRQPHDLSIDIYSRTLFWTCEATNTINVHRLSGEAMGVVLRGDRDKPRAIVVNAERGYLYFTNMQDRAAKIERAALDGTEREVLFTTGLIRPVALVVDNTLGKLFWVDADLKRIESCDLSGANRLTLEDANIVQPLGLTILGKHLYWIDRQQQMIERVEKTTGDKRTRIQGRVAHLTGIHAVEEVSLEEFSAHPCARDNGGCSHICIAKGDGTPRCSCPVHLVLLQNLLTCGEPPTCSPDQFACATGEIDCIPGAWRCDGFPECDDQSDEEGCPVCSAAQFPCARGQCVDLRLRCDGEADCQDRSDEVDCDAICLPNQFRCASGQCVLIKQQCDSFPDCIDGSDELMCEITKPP
Nature of the assay: Y2H (peptides of FIG. 4).

B1: OST262 (LRP5 peptide aptamer) (peptide)
chain: DGSMSDKIIHLTDDSFDTDVLKADGAILVDFWAEWCGPNSLWIGPGDQGLFRRFVFTSGPCKMIAPILDEIADEYQGKLTVAKLNIDQNPGTAPKYGIRGIPTLLLFKNGEVAATKVGALSKGQLKEFLDANLA
Take B1: the binding result is “binds”.
